{
  "source": "patent US10183919B2",
  "about": "(priority 2014, dated 2019)",
  "experiment": "Pharmacokinetics and brain distribution after a single intraperitoneal dose",
  "conditions": "brain; i.p. 10 mg/kg, male C57BL/6 mice",
  "method": "For each compound, a group of twenty four male mice were administered with a solution formulation of the drug in normal saline intraperitoneally at a dose of 10 mg/kg. Blood samples (approximately 60 μL) were collected under light isoflurane anesthesia from the retro orbital plexus at 0.08, 0.25, 0.5, 1, 2, 4, 8 and 24 hr. Plasma samples were separated by centrifugation of whole blood and stored below −70° C. until bioanalysis. Immediately after collection of blood, brain samples were collected from each mouse at 0.08, 0.25, 0.5, 1, 2, 4, 8 and 24 hr. Brain samples were homogenized using ice-cold phosphate buffer saline (pH 7.4) and homogenates were stored below −70° C. until analysis. Total homogenate volume was three times the tissue weight. All samples were processed for analysis by protein precipitation using acetonitrile (ACN) and analyzed with fit-for-purpose LC/MS/MS method (LLOQ-1.01 ng/mL in plasma and brain). Pharmacokinetic parameters were calculated using the non-compartmental analysis tool of Phoenix WinNonlin® (Version 6.3).",
  "note": "The name of at least one read-out is uncertain.",
  "data": [
    {"compound": "COCCCNC1c2ccccc2N(C)S(=O)(=O)c2cc(Cl)ccc21", "note": "(stereo not shown) [compound 23, 3-Chloro-11-((3-methoxypropyl)amino)-6-methyl-6,11-dihydrodibenzo [c,f][1,2]thiazepine 5,5-dioxide]", "values": [
      {"measurement": "Cmax", "result": 377.63, "unit": "ng/g"}
    ]}
  ]
}
